Assay results: patent EP4458977A1, “SELF-ASSEMBLING PEPTIDE AMPHIPHILES AS RETROVIRAL TRANSDUCTION ENHANCERS” (Max-Planck-Gesellschaft zur Förderung der Wissenschaften …, priority 2023, dated 2024)
For some assays here: At least one peptide structure holds a part that was inferred or is arguable (an end, a ring closure or a residue). Some of these results come from one statement about several compounds together. Some ranges recur; such a range may be that of the whole group of compounds. Where a SMILES comes first, the peptide text is derived from it. Where no end group is shown, it is not given here. The star is where a group is joined. Palmitoyl = CCCCCCCCCCCCCCCC(=O)*

Tests used:
Format in all cases: physicochemical
[1] = Thioflavin T (ThT) fluorescence assay; conditions: relative to PBS control
Description: Transmission electron microscopy (TEM) measurements, Thioflavin (ThT), zeta-potential measurements for fibril characterization were prepared and conducted according to prior art procedures. […] Fibrils were defined as distinct, if no visible structures could be identified in fluorescence and brightfield microscopy. A peptide fibril was considered as ThT-active if the fluorescence intensity was at least twice as strong compared to the control (PBS containing 10% DMSO).

[2] = TEM of peptide assemblies (fibril formation / assembly); set-up: key: "1" means fibril formation observed; "0" means no fibrils observed; conditions: via TEM
Description: The peptides were predissolved in DMSO to a concentration of 10 mg/mL. The fibril formation was induced by further diluting the solution to a final incubation concentration of 650 µM or 1 mg/mL in PBS as indicated in the text and incubated for 1 d (1 day) at rt (room temperature, 20 °C - 25 °C). Other concentrations as described herein were achieved by further dilution of preformed fibrils.
Transmission electron microscopy (TEM) measurements, Thioflavin (ThT), zeta-potential measurements for fibril characterization were prepared and conducted according to prior art procedures. […] Fibrils were defined as distinct, if no visible structures could be identified in fluorescence and brightfield microscopy.

[3] = Zeta-potential measurement (dynamic light scattering)
[4] = as above; conditions: derived count rate of scattered light during zeta-potential measurements
Description: Zeta-potential: 60 µL of the peptides (1 mg mL-1) were diluted in 600 µL, 1 mM KCI solution and placed in a disposable folded capillary cuvette. All zeta-potential measurements were conducted by dynamic light scattering technology (Zetasizer, Malvern Instruments) and in triplicates for each sample. The derived count rate of the zeta potential measurement was used as information on the light scattering intensity and turbidity of the sample as a further indicator for microscopic aggregation.

[5] = ATR-FT-IR determination of β-sheet content
Description: ATR-FT-IR: ATR-IR spectra acquisition and the calculation of β-sheet content were conducted according prior art procedures. Briefly, FT-IR spectra of solid samples were recorded after lyophilization of fibril solutions using a Bruker Tensor II spectrometer equipped with a diamond crystal as ATR element with a spectral resolution of 2 cm^-1, each spectrum was an average of 64 scans. The data was processed with Origin software. β-sheet amount was determined by calculating the integral of the peak at 1630 cm-1 (β-sheet) relative to the integral between 1650-1700 cm-1 (native structure) from the 2nd derivative of the FT-IR spectra.

QCKIKQIINMWQ [EF-C, reference compound]
N-fold ThT-fluorescence [1]: 16.2 | Fibril Formation ([2]; hydrophobic moiety exchange): 1 | Fibril Formation ([2]; linkage chemistry exchange): 1 | Zeta-Potential / mV [3]: 6.6 mV | Count Rate / kcps [4]: 2602.3 kcps

CCCCCCCCCCCCCCCC(=O)N[C@@H](Cc1ccccc1)C(=O)N[C@@H](CCC(N)=O)C(=O)N[C@@H](Cc1ccccc1)C(=O)N[C@@H](CCCCN)C(=O)N[C@@H](Cc1ccccc1)C(=O)N[C@@H](CCCCN)C(=O)N[C@@H](CS)C(N)=O [PA2, C16-FQFKFKC-NH2] (Palmitoyl-FQFKFKC-NH2)
higher β-sheet content compared to respective parent peptides [5]: 9-15%

CCCCCCCCCCCCCCCC(=O)N[C@H](C(=O)N[C@H](C(=O)N[C@H](C(=O)N[C@@H](C)C(=O)N[C@@H](C)C(=O)N[C@@H](C)C(=O)N[C@@H](CCCCN)C(=O)N[C@@H](CCCCN)C(=O)N[C@@H](CCCCN)C(N)=O)C(C)C)C(C)C)C(C)C [PA1] (Palmitoyl-VVVAAAKKK-NH2)
higher β-sheet content compared to respective parent peptides [5]: 9-15%

CCCCCCCCCCCCCCCC(=O)N[C@H](C(=O)N[C@H](C(=O)N[C@H](C(=O)N[C@@H](C)C(=O)N[C@@H](C)C(=O)N[C@@H](C)C(=O)N[C@@H](CCC(=O)O)C(=O)N[C@@H](CCC(=O)O)C(=O)N[C@@H](CCC(=O)O)C(N)=O)C(C)C)C(C)C)C(C)C [PA3] (Palmitoyl-VVVAAAEEE-NH2)
higher β-sheet content compared to respective parent peptides [5]: 9-15%
